# PubChem BioAssay AID602196, INSERM – 2012
# Assay: 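Knock-downs that protect lung cancer cells from cisplatin or sensitise them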
# Cell system: human A549 lung cancer cells
# Reagents: siRNA pair against human genes
# Time to read-out: 48 h transfection before cisplatin; time from cisplatin to read-out not stated
# Conditions: cisplatin at a dose killing half of control-siRNA cells; exact dose and duration not given
# Read-out: 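Shift in cisplatin death relative to control siRNA, from -50 (all cells die) to +50 (no cells die); siRNAs harmful on their own scored 0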
# Direction: two-siRNA summed score (-2 to +2): higher = both siRNAs protect from cisplatin killing; -2 means both sensitise
# Hit rule: 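siRNAs harmful alone (LDH or WST-1) get 0; others get +1 for less and -1 for more cisplatin killing; genes are active when the two siRNAs give the same sign, summing to ±2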
# Calls: active = both siRNAs shift cisplatin killing the same way; inactive = no consistent shift, or siRNA harmful alone
# Shown is a random part of about 23,000 reagents. 455 of them (2%) count as active. 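Active includes both protection and sensitisation; some change values fall well beyond the stated -50 to +50 range.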 Reagents against one gene are numbered here. Further read-outs or replicates are left out here. No sequences are given here. The record does not give: the amount of reagent.
target,reagent,two-siRNA summed score (-2 to +2),outcome
PPIAL4A,1,0,inactive
DIRAS2,1,0,inactive
VKORC1,1,1,inactive
MTHFR,1,-1,inactive
LOC222901,1,1,inactive
RIOK1,1,1,inactive
ST3GAL4,1,0,inactive
SEM1,1,0,inactive
SEM1,2,0,inactive
RBFA,1,0,inactive
GNRH2,1,1,inactive
MOXD1,1,-1,inactive
OR5AU1,1,0,inactive
SKAP1,1,0,inactive
RNF220,1,0,inactive
LCE2A,1,1,inactive
HSD3B2,1,0,inactive
ASTE1,1,0,inactive
CRMP1,1,0,inactive
CRMP1,2,1,inactive
ITSN1,1,-1,inactive
CD248,1,-1,inactive
NPAT,1,0,inactive
TNFSF12-TNFSF13,1,1,inactive
LOC283586,1,0,inactive
LOC401499,1,0,inactive
DHX57,1,0,inactive
AGXT,1,-1,inactive
GDE1,1,0,inactive
PPIAP31,1,0,inactive
GFM1,1,0,inactive
GABRD,1,0,inactive
ACSS2,1,0,inactive
CHRNG,1,-1,inactive
DEFB129,1,0,inactive
CASP9,1,0,inactive
RPS11,1,0,inactive
SPATA2L,1,0,inactive
TRMT13,1,-1,inactive
NPHP4,1,1,inactive
OR7C2,1,-1,inactive
P2RY8,1,-1,inactive
GLB1L3,1,0,inactive
PLAT,1,0,inactive
JHY,1,0,inactive
SLC25A44,1,0,inactive
HADHB,1,0,inactive
GARIN3,1,0,inactive
ARIH1,1,-2,active
DOCK4,1,0,inactive
PDCD2L,1,0,inactive
STK26,1,1,inactive
LOC390980,1,0,inactive
SNAP23,1,0,inactive
LOC440948,1,1,inactive
ARL6IP5,1,0,inactive
CDRT15,1,0,inactive
